Where “and” joins values, the source holds several entries; their conditions need not be identical. Equal values may be shown once. This is one part of the list. Shown are side measurements of this screen, not its main read-out; they come without a call. Compounds called inactive in the main read-out are mostly missing here. Words in brackets tell the shape of the fitted curve; partial curves, single points and poor fits give uncertain potencies.
Assay: qHTS Assay for Modulators of Lamin A Splicing
Conditions: HeLa LMNA splicing GFP/RFP minigene ratio, 48 h
In short: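 S3 HeLa stable clones carrying a lamin A-EGFP splicing minigene plus DsRed2 were seeded at 600 cells/well in Opti-MEM with 2% FBS, pin-dosed and incubated 48 h at 37°C. Acumen cytometry (488 nm) gave the GFP/RFP total-intensity ratio.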

[1] = measured here: GFP splicing reporter channel
[2] = measured here: RFP viability control channel

Row | Structure (SMILES) | AC50 [1] | AC50 [2]
1 | Cc1cccc(-n2ncc3c(NCc4cccs4)ncnc32)c1 | 22.4 µM [rising, single point] | 20 µM [rising, partial curve]
2 | O=C(Nc1ccccc1F)c1ccc(CSc2ccccc2)o1 | 14.1 µM [rising, partial curve, poor fit] | 17.8 µM [rising, partial curve, poor fit]
3 | Cc1nc(-c2cccc(F)c2)sc1CCNC(=O)C(=O)Nc1ccc2c(c1)OCO2 | 25.1 µM [falling, single point] | 25.1 µM [falling, single point]
4 | O=C(N=Nc1c(O)n(Cc2ccccc2)c2ccccc12)c1ccc(O)cc1 | – | 12.6 µM [rising, partial curve, poor fit]
5 | Cc1cc(C2(c3ccc(O)c(C)c3)OC(=O)c3ccccc32)ccc1O | – | 35.5 µM [rising, single point]
6 | Cc1cccc(N2CCN(c3ncnc4onc(C)c34)CC2C)c1 (stereo unspecified) | – | 12.6 µM [rising, partial curve]
7 | CCc1cccc(C)c1NC(=O)c1cn2c3c(ccc(Cl)c3c1=O)OC(C)C2 (stereo unspecified) | 0.794 µM [falling, full curve, poor fit] | 0.891 µM [falling, full curve, poor fit]
8 | CCCCOc1ccc(C(O)(CCC)CCN2CCOCC2)cc1 (stereo unspecified) | 8.91 µM [rising, partial curve] | 12.6 µM [rising, partial curve]
9 | CN1CCN(c2ncnc3ccc(-c4ccoc4)cc23)CC1 | 3.98 µM [falling, partial curve, poor fit] | –
10 | O=C(NCCN1CCOCC1)c1ccc([N+](=O)[O-])cc1[N+](=O)[O-] | 0.447 µM [falling, partial curve] | 0.794 µM [falling, partial curve]
11 | CCN1CCN(c2cc3c(cc2F)c(=O)c(S(=O)(=O)c2cc(C)cc(C)c2)cn3CC)CC1 | 0.794 µM [falling, full curve, poor fit] | –
12 | O=[N+]([O-])c1cc(-n2cccc2)ccc1N1CCOCC1 | 10 µM [rising, partial curve] | 0.0631 µM [rising, full curve, poor fit]
13 | CN(C)c1ccc(-c2nnn(Cc3ccccc3Br)n2)cc1 | 17.8 µM [rising, single point] | 22.4 µM [rising, single point]
14 | CCOc1ccc(-c2nonc2NC(=O)COc2ccccc2)cc1 | 0.0562 µM [rising, full curve, poor fit] | –
15 | CC1C/C(=C\c2cccnc2)C(=O)/C(=C/c2cccnc2)C1 (stereo unspecified) | 0.631 µM [falling, partial curve] | 6.31 µM [falling, single point]
16 | COc1ccc(NC(=O)Cn2nnc(C(=O)Nc3ccc(C)c(F)c3)c2N)cc1Cl | – | 5.62 µM [rising, single point]
17 | Cc1ccc(S(=O)(=O)n2nc(OC(=O)c3c(-c4ccccc4Cl)noc3C)cc2N)cc1 | – | 12.6 µM [rising, single point]
18 | FC(F)(F)c1nnc2c(Sc3ccccn3)nc3ccccc3n12 | 5.62 µM [falling, full curve] | 11.2 µM [falling, partial curve]
19 | C=CCN1C(=Nc2ccccc2)SC/C1=C\C(=O)OC | 35.5 µM [rising, single point] | –
20 | O=c1[nH]cc(C(F)(F)F)cc1NS(=O)(=O)c1ccc([N+](=O)[O-])cc1 | 0.501 µM [rising, full curve, poor fit] | –
21 | NS(=O)(=O)c1cc(C(=O)O)cc(N2CCCC2)c1Oc1ccccc1 | 0.158 µM [falling, single point] | 0.00398 µM [falling, full curve, poor fit]
22 | CCOc1ccc(Nc2nc(Cc3nnc(SCC(=O)c4ccc(C)c(C)c4)o3)cs2)cc1 | – | 12.6 µM [rising, partial curve]
23 | C[C@H]1Cc2c(-c3ccccc3)nc3c(c2CO1)CN(S(=O)(=O)c1ccc(Cl)c2nonc12)CC3 | 6.31 µM [falling, single point] | 3.98 µM [falling, partial curve, poor fit]
24 | COc1cccc(NS(=O)(=O)c2ccc(OC)c(OC)c2)c1 | – | 15.8 µM [rising, single point]
25 | O=C(Nc1ccc(N2CCN(C(=O)c3ccc(Cl)cc3)CC2)cc1)c1cc2ccccc2o1 | 5.01 µM [rising, full curve] | –
26 | Cn1c(SCC(=O)c2ccccc2)nnc1-c1ccncc1 | 35.5 µM [falling, single point] | –

Quoted at random: four records from the list
Row | Structure (SMILES) | AC50 [1] | AC50 [2]
25 | O=C(Nc1ccc(N2CCN(C(=O)c3ccc(Cl)cc3)CC2)cc1)c1cc2ccccc2o1 | 5.01 µM [rising, full curve] | –
9 | CN1CCN(c2ncnc3ccc(-c4ccoc4)cc23)CC1 | 3.98 µM [falling, partial curve, poor fit] | –
18 | FC(F)(F)c1nnc2c(Sc3ccccn3)nc3ccccc3n12 | 5.62 µM [falling, full curve] | 11.2 µM [falling, partial curve]
4 | O=C(N=Nc1c(O)n(Cc2ccccc2)c2ccccc12)c1ccc(O)cc1 | – | 12.6 µM [rising, partial curve, poor fit]

Later entries.

Row | Structure (SMILES) | AC50 [1] | AC50 [2]
27 | CCOC(=O)c1ccc2c(c1)N(CC(=O)Nc1ccc(CC)cc1)C(=O)c1ccccc1S2 | 14.1 µM [falling, partial curve] | 12.6 µM [falling, single point]
28 | Cc1cc(N/N=C/c2cccc(Cl)c2)nc(NCc2ccccc2)n1 | – | 12.6 µM [rising, partial curve]
29 | CN(C)CCCN1c2ccccc2Sc2ccccc21 | 0.02 µM [falling, full curve, poor fit] | 35.5 µM [rising, single point]
30 | CCN(Cc1ccccc1)c1ccc(N=Nc2nn(C)c(C)c2[N+](=O)[O-])cc1 | 20 µM [rising, single point] | 28.2 µM [rising, single point]
31 | CN(CCCNC(=O)c1cn(C)c2ccc(S(=O)(=O)N(C)C)cc2c1=O)c1ccccc1 | – | 35.5 µM [rising, single point]
32 | COc1ccc(-c2nnc3sc(COc4ccccc4)nn23)cc1 | – | 35.5 µM [rising, single point]
33 | CCOC(=O)c1c(C)c(C)n(Cc2cccc(OC)c2OC)c1C | – | 28.2 µM [rising, single point]
34 | O=C(CSc1cn(CCNC(=O)c2cccs2)c2ccccc12)NC1CCCC1 | – | 35.5 µM [rising, single point]
35 | COc1ccc(C(=O)CC(Nc2ccc([N+](=O)[O-])cc2)c2ccc(Cl)cc2)cc1 (stereo unspecified) | – | 12.6 µM [rising, single point]
36 | O=C(COc1cccc(Cl)c1)Nc1nc(-c2ccc(S(=O)(=O)N3CCOCC3)cc2)cs1 | 35.5 µM [rising, single point] | 22.4 µM [rising, partial curve, poor fit]
37 | COc1ccc2ccccc2c1/C=N/NC(=S)Nc1cc(S(=O)(=O)N2CCOCC2)ccc1N1CCOCC1 | – | 14.1 µM [rising, partial curve, poor fit]
38 | COc1cccc(Nc2ncnc3nc[nH]c23)c1 | – | 5.01 µM [rising, full curve, poor fit]
39 | Cc1ccc(-c2cc(=O)c3cc(C)ccc3[nH]2)cc1 | – | 35.5 µM [rising, single point]
40 | CN(C)C(=O)c1ccc(-c2nc(-n3ccnc3)c3ccccc3n2)cc1 | 12.6 µM [falling, partial curve] | 20 µM [falling, single point]
41 | CC/C(=N\NC(=O)c1c[nH]c2ccccc12)c1cccs1 | 22.4 µM [rising, single point] | 17.8 µM [rising, single point]
42 | CS(=O)(=O)Nc1cccc(-c2nc(Nc3ccncc3)c3ccccc3n2)c1 | 12.6 µM [falling, partial curve] | 17.8 µM [falling, single point]
43 | Cc1ccc(OCC(=O)Nc2ccc(S(=O)(=O)N(Cc3ccccc3)c3ccccc3)cc2)cc1 | 22.4 µM [falling, partial curve, poor fit] | 20 µM [falling, partial curve, poor fit]
44 | c1ccc(-c2nnnc3ccccc23)cc1 | – | 11.2 µM [rising, partial curve, poor fit]
45 | Oc1ccc(N=Nc2n[nH]c(-c3ccccc3)n2)cc1 | – | 20 µM [rising, single point]
46 | Cc1ccccc1C(=O)NCC(=O)NNC(=S)NC(=O)c1ccccc1C | 3.16 µM [falling, partial curve, poor fit] | 2 µM [falling, full curve, poor fit]
47 | Cc1cccc(C(=O)Nc2ccccc2C(=O)OCc2cc(=O)n3nc(C4CC4)sc3n2)c1 | 0.251 µM [rising, full curve, poor fit] | –
48 | COC(=O)c1sccc1NC(=O)CSc1nnnn1-c1ccccc1F | 10 µM [rising, partial curve] | 25.1 µM [rising, single point]
49 | COCc1cc(C)nc2sc3c(=O)n(-c4cccc5ccccc45)nnc3c12 | 10 µM [falling, partial curve, poor fit] | –
50 | CCOCCOC(=O)c1ccc(-n2cnc(C)n2)nc1 | 0.00447 µM [falling, full curve, poor fit] | 0.00501 µM [falling, full curve, poor fit]
51 | O=C(C1CCN(c2nc3ccccc3[nH]2)CC1)N1CCN(c2cccc(Cl)c2)CC1 | – | 35.5 µM [rising, single point]
52 | Cc1cc(C(C)(C)C)c(O)c(C)c1CC1=NCCN1 | 3.16 nM [falling, full curve, poor fit] and 5.01 nM [falling, full curve, poor fit] | 398 nM [falling, partial curve, poor fit] and 6.31 µM [falling, single point]

— PubChem BioAssay AID1487 (National Center for Advancing Translational Sciences (NCATS), 2009)
